Data as given in the supplement of paper PMC3334620.
In all, about 33,000 sequences were measured (“E-score (-0.5 to 0.5)”: median about -0.0034, highest 2% from about 0.25 on). The list shows a part of the results.

target: T1, Yap3 (UniProt P38749); test: PBM E-score (8-mer binding enrichment) (E-score (-0.5 to 0.5)); higher = stronger / more preferred TF binding; conditions: protein concentration: 100 nM; construct: GST-full length
T1 sequence: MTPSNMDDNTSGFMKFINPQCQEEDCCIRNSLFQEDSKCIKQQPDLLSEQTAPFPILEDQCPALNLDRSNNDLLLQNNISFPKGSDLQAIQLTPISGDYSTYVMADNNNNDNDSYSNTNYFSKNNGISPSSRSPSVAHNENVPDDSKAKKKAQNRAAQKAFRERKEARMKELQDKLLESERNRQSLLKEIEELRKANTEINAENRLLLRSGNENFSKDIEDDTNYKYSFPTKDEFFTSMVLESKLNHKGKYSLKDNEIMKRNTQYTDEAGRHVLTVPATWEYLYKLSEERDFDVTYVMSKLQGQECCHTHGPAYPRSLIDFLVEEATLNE
Description: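 Universal 'all 10-mer' protein binding microarrays (Agilent AMADID 015681) probed with GST-tagged S. cerevisiae TFs (full-length or DBD) made by in vitro transcription/translation (PURExpress), about 100-200 nM. Bound TF was detected with fluorescent anti-GST. Each ungapped 8-mer (which stands for itself and its reverse complement) is scored by the PBM enrichment score (E-score), a modified Wilcoxon-Mann-Whitney statistic from -0.5 to +0.5, computed with the Universal PBM Analysis Suite. Scale: above 0.35 generally sequence-specific binding.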

Sequence | PBM E-score
ATAACGGA | 0.205
AGGCTTAT | 0.031
ATAGCCTA | -0.078
AATACAGG | 0.213
GCTGCTAA | 0.00183
CGTGCAAC | 0.0468
GTCTTAGA | -0.128
CGCTCTCC | -0.284
ACATGAAT | 0.0119
CCTGGGGC | -0.404
AACTGCTC | -0.0019
AGATTCCC | -0.0449
CTATAACA | -0.0866
ACGATGGG | -0.079
CCCCTCCA | -0.228
CTCCGCAC | -0.227
GCCCTCAC | -0.222
TAATCAGA | 0.101
CATTTCAC | 0.204
CATCTGCC | 0.00952
CTGTTGCC | -0.0165
GACTTTTA | -0.0284

Sequence | PBM E-score
ATAGACCG | -0.0339
GGGTGAAC | -0.0926
CTGTTCGA | -0.192
CTAACGAA | -0.075
ATTCCTCC | -0.0883
AAGTGATT | 0.183
GAAATCCA | 0.0886
CTGCCGTC | -0.168
CAGCTGGG | -0.158
GGTTAATA | 0.0683
CTTCGCTC | -0.0997
ATACGCGG | -0.00618
AGGGACTG | -0.168
ATAGCCCG | -0.28
GCAAAAGA | 0.0607
ACGATTAG | 0.159
GTGTTTAA | 0.197
CAATTGTA | 0.0214
ATCAGATC | -0.0788
GATGGTAC | 0.0934
ACAACCCC | -0.123
GCATAGCC | -0.266

Sequence | PBM E-score
ATCAAACC | 0.179
AGACTACC | 0.0396
ACGTTCAG | -0.093
GCGGTACA | -0.0254
ATCCAGTC | 0.0451
AAGCGGTC | -0.0918
AGCACACT | 0.0288
CGTGGATA | -0.0137
AACGAGTA | 0.19
GCCCACCC | -0.0177
CTGGGGTA | -0.059
CTGTTCGC | 0.0298
GTTACTAA | 0.339
ATGGCCAT | 0.114
AATCGCCT | 0.0192
GTCGGGTA | 0.0387
GGGTCTAA | -0.125
CTTAGATA | 0.123
ATACCGTA | 0.0777
GATGGGGC | -0.261
CGACCTAC | -0.119
ACCCGCGC | 0.179

Sequence | PBM E-score
CCAAACTC | 0.0795
AACGCTCG | 0.0181
CCGTACAG | 0.0119
CGGGGAAC | -0.117
AAAATCGC | 0.118
GGCCTACA | 0.0088
ATTTACTA | 0.201
GTATATGA | 0.144
ACGGCAGG | -0.299
CTCTCCCA | -0.109
GTTGGAGA | 0.0135
CCGGATAA | 0.0988
ATTTTTCG | 0.166
GGGTTCAA | 0.0118
GTTGTGAA | 0.0935
ACCAAGTA | 0.00641
GATGGAAA | 0.0333
TCCTCTCA | 0.0272
CTATTGTC | -0.00458
ACGGGAAT | -0.0416

Pulled one by one from the list above (five):
Sequence | PBM E-score
ATGGCCAT | 0.114
CCCCTCCA | -0.228
GCGGTACA | -0.0254
CTGTTCGC | 0.0298
ACATGAAT | 0.0119
